Reference: paper PMC5594048
These are yes or no findings as the source states them, for the method shown. Some binding calls cover weakened binding; strength is not graded here. Tags and fused reporters may be left off the sequences shown.

Chains of the proteins cited; added tags and fusions are not shown.
UniProt Q39026: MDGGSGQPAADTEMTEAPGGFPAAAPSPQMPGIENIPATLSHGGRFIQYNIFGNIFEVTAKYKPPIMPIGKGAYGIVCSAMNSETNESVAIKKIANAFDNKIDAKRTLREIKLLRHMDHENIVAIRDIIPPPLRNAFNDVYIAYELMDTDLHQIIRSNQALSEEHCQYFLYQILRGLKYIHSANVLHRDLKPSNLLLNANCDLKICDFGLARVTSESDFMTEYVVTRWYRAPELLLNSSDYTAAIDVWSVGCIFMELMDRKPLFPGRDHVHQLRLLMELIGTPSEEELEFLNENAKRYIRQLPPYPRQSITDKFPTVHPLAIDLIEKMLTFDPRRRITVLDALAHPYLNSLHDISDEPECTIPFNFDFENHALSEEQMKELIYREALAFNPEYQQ

Molecular target: Mitogen-activated protein kinase 6 (MPK6), yeast two-hybrid fusion (Arabidopsis thaliana) (UniProt Q39026)
Assay: two-hybrid; Gal4 reporter-based ProQuest two-hybrid system (Invitrogen), pDEST22/pDEST32; pairwise tests; growth on SD-Leu/-Trp/-His or SD-Leu/-Trp/-His/-Ade

binding: binds
B1: PRP Homolog 1 (PH1), full length ORF, yeast two-hybrid fusion (protein, UniProt Q6NN02 1-125)
chain: MFFDTKVLNYPTIHKSISMASTMQRTSSSAASNERQLSQLQRRAPSLMIKPTSFSNWNVAIPLLSPLAPSLTSSFDQSHVPPPQNKTEIPVEEEVKKTPVFKKWQHPASPFCYEPTTFVPPFIQV
